Laboratory results from doi:10.1101/815506.
Read-outs that look alike come from different tables or passages of the source. No constants are given. Whether binding was seen depends on the method and setting. Binding seen in cells or lysates may run through a third protein. Some entries that bind do so weakly or less than the wild type. For part of these data: Tags and fused reporters may be left off the sequences shown.

By UniProt entry, the sequences of proteins in these tests, tags left out. Residues count along the entry.
UniProt Q8N884: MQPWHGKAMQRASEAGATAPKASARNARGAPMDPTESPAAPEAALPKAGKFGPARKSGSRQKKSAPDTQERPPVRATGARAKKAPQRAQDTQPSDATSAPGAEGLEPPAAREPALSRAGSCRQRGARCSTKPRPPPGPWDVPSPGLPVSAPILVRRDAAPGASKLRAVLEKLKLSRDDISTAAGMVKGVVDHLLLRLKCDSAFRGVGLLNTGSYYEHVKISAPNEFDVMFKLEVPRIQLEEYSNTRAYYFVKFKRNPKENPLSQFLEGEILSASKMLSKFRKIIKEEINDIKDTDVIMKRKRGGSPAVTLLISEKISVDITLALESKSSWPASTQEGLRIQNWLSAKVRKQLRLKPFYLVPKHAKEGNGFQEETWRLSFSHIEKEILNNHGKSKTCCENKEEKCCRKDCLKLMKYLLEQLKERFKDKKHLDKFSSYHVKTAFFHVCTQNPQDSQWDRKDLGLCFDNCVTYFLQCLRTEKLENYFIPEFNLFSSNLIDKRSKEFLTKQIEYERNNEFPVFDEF
UniProt O15455, residues 24-904: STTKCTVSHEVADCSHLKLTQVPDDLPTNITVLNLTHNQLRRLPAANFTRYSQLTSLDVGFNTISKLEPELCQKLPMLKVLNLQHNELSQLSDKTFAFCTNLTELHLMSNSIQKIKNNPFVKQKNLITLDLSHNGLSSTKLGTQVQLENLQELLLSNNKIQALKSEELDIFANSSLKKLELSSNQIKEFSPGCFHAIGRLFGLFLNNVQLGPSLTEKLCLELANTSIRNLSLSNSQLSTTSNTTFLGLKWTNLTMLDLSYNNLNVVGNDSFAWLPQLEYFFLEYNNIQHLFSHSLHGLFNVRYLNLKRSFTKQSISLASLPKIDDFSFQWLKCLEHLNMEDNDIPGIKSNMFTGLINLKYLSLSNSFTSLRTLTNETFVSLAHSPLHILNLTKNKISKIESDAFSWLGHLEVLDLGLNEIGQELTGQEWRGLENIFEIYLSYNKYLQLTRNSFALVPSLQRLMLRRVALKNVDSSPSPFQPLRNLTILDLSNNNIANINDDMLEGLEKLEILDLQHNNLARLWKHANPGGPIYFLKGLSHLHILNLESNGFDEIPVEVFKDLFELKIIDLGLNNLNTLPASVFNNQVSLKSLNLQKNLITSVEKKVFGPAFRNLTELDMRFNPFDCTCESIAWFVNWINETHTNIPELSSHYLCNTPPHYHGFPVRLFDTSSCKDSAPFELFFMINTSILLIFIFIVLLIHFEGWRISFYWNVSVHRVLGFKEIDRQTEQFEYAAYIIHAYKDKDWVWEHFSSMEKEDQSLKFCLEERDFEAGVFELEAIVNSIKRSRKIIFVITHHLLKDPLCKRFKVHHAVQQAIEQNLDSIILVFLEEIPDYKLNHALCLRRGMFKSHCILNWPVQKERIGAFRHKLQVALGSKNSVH
UniProt Q9NPP4: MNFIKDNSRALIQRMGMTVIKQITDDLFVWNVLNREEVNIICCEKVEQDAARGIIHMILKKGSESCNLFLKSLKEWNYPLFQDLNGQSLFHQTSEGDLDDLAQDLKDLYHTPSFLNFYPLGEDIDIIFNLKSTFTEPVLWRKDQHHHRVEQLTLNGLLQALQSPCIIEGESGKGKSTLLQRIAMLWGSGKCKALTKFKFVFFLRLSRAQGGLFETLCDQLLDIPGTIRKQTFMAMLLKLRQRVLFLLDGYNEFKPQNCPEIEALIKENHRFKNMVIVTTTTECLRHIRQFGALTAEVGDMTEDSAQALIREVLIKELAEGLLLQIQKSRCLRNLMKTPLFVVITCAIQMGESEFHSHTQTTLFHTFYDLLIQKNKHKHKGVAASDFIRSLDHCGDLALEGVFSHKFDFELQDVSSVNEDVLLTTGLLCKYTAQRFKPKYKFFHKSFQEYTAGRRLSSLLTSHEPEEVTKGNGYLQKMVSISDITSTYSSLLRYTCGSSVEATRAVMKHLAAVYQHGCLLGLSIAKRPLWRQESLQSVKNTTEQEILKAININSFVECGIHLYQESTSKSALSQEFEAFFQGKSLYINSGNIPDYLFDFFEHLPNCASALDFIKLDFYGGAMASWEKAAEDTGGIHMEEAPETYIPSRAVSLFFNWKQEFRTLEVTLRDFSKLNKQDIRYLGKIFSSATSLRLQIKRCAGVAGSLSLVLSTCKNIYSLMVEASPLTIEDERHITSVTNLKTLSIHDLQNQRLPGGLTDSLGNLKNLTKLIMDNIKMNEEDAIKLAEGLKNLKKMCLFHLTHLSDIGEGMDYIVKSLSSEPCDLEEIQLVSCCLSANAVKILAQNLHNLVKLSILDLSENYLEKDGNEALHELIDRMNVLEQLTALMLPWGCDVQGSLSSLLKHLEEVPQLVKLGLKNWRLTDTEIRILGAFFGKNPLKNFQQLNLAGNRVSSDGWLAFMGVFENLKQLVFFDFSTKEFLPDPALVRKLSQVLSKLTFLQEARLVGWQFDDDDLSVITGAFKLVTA
UniProt O00206, residues 24-839: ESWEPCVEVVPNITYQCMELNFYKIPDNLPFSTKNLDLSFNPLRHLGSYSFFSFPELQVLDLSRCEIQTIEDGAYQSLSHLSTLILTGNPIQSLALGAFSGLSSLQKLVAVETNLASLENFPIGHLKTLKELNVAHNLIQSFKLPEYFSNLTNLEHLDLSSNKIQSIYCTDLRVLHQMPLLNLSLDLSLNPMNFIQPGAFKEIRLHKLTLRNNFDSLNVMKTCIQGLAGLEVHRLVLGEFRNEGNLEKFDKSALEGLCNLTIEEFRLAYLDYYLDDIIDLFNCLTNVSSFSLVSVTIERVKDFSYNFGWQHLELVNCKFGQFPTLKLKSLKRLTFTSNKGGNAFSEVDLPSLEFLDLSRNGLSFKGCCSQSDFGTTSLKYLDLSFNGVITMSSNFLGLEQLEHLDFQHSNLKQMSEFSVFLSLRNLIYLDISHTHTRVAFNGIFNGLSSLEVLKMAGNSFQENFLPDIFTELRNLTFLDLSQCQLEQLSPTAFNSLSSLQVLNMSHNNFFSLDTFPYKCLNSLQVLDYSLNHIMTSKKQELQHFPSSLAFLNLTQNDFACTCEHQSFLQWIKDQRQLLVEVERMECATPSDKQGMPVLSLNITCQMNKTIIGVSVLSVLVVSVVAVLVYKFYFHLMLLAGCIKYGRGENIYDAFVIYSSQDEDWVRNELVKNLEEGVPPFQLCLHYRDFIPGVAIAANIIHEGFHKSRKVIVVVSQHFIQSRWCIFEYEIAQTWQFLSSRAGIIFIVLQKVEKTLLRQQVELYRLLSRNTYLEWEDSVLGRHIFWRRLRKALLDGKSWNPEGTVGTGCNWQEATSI
UniProt Q96CV9: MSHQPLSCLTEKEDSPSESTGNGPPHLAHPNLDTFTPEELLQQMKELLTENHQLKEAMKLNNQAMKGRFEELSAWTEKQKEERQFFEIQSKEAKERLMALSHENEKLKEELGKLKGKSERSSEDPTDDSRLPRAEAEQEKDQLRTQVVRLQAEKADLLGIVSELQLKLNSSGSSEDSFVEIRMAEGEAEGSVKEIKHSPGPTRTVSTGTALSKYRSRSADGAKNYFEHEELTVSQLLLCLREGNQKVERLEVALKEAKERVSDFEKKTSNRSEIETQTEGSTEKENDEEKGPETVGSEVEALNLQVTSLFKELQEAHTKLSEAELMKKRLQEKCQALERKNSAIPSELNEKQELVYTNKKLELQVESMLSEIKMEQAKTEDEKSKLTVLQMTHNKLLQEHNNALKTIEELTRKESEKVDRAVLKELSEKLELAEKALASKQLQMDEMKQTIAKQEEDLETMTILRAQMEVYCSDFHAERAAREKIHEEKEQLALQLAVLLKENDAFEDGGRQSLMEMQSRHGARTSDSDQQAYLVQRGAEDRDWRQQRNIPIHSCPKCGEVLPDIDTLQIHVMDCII

T1: endogenous IRGM (human (endogenous in THP-1)) (UniProt A1A4Y4)
T1 sequence: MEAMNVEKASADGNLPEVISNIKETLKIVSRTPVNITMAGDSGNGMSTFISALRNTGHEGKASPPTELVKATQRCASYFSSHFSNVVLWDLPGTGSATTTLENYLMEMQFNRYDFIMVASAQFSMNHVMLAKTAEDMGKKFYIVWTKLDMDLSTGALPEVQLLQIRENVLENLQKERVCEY

T2: GFP-IRGM (human) (UniProt A1A4Y4)
T2 sequence: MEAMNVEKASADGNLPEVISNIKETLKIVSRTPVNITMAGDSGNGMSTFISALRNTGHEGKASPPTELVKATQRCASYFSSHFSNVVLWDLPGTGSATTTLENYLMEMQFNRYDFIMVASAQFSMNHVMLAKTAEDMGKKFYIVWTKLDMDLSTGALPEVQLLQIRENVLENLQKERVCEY

T3: Flag-RIG-I (UniProt O95786)
T3 sequence: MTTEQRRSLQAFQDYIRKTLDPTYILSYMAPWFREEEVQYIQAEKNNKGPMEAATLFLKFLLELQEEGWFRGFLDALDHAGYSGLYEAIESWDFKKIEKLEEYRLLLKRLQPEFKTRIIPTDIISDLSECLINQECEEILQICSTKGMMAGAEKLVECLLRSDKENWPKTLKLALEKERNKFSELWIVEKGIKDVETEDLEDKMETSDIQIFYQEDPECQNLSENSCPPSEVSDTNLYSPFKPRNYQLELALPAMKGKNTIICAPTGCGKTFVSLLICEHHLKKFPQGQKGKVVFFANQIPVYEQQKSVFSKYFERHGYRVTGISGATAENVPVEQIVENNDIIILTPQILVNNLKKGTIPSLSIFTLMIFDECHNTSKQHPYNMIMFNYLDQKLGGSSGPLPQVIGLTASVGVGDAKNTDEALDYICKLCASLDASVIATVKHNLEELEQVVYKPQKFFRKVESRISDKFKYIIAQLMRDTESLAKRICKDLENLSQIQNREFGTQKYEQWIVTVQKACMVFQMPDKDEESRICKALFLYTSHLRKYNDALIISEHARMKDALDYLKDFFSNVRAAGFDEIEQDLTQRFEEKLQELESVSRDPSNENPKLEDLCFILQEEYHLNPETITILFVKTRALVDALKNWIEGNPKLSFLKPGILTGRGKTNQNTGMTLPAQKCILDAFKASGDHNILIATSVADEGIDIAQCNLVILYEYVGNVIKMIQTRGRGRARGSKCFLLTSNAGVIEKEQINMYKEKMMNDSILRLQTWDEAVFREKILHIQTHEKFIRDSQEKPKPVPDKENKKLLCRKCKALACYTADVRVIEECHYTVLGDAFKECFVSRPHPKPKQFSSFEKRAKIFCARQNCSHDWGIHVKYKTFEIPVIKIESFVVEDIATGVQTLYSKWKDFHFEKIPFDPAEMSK


What was measured:
Experiment in all cases: co-IP
[1] = biological target: T1, endogenous IRGM (human (endogenous in THP-1))
GFP-IRGM (human) [2] = biological target: T2, GFP-IRGM (human)
[3] = biological target: T1, endogenous IRGM (human (endogenous in THP-1)); remark: listed apart in the source
GFP-IRGM (human) [4] = biological target: T2, GFP-IRGM (human); remark: listed apart in the source
Flag-RIG-I = biological target: T3, Flag-RIG-I
Flag-cGAS = Flag-cGAS (UniProt Q8N884)
Flag-TLR3 = Flag-TLR3 (UniProt O15455)

Molecule	binding [1]	binding (GFP-IRGM (human) [2])	also measured
endogenous NLRC4 (from UniProt Q9NPP4 1-1024)	no binding		
endogenous cGAS (from UniProt Q8N884 1-522)	binds		
Flag-cGAS (from UniProt Q8N884 1-522)		binds	
Flag-TLR3 (from UniProt O15455 24-904) (receptor)		binds	
Flag-p62 (from UniProt Q13501 1-440)		binds	
endogenous TLR4 (from UniProt O00206 24-839) (receptor)	no binding		
endogenous TLR3 (from UniProt O15455 24-904) (receptor)	binds		
Flag-Optineurin (from UniProt Q96CV9 1-577)		no binding	
endogenous TLR7 (receptor, UniProt Q9NYK1 27-1049) ARWFPKTLPCDVTLDVPKNHVIVDCTDKHLTEIPGGIPTNTTNLTLTINHIPDISPASFHRLDHLVEIDFRCNCVPIPLGSKNNMCIKRLQIKPRSFSGLTYLKSLYLDGNQLLEIPQGLPPSLQLLSLEANNIFSIRKENLTELANIEILYLGQNCYYRNPCYVSYSIEKDAFLNLTKLKVLSLKDNNVTAVPTVLPSTLTELYLYNNMIAKIQEDDFNNLNQLQILDLSGNCPRCYNAPFPCAPCKNNSPLQIPVNAFDALTELKVLRLHSNSLQHVPPRWFKNINKLQELDLSQNFLAKEIGDAKFLHFLPSLIQLDLSFNFELQVYRASMNLSQAFSSLKSLKILRIRGYVFKELKSFNLSPLHNLQNLEVLDLGTNFIKIANLSMFKQFKRLKVIDLSVNKISPSGDSSEVGFCSNARTSVESYEPQVLEQLHYFRYDKYARSCRFKNKEASFMSVNESCYKYGQTLDLSKNSIFFVKSSDFQHLSFLKCLNLSGNLISQTLNGSEFQPLAELRYLDFSNNRLDLLHSTAFEELHKLEVLDISSNSHYFQSEGITHMLNFTKNLKVLQKLMMNDNDISSSTSRTMESESLRTLEFRGNHLDVLWREGDNRYLQLFKNLLKLEELDISKNSLSFLPSGVFDGMPPNLKNLSLAKNGLKSFSWKKLQCLKNLETLDLSHNQLTTVPERLSNCSRSLKNLILKNNQIRSLTKYFLQDAFQLRYLDLSSNKIQMIQKTSFPENVLNNLKMLLLHHNRFLCTCDAVWFVWWVNHTEVTIPYLATDVTCVGPGAHKGQSVISLDLYTCELDLTNLILFSLSISVSLFLMVMMTASHLYFWDVWYIYHFCKAKIKGYQRLISPDCCYDAFIVYDTKDPAVTEWVLAELVAKLEDPREKHFNLCLEERDWLPGQPVLENLSQSIQLSKKTVFVMTDKYAKTENFKIAFYLSHQRLMDEKVDVIILIFLEKPFQKSKFLQLRKRLCGSSVLEWPTNPQAHPYFWQCLKNALATDNHVAYSQVFKETV			binding [3]: no binding
Myc-AIM2 (protein, UniProt O14862 1-343) MESKYKEILLLTGLDNITDEELDRFKFFLSDEFNIATGKLHTANRIQVATLMIQNAGAVSAVMKTIRIFQKLNYMLLAKRLQEEKEKVDKQYKSVTKPKPLSQAEMSPAASAAIRNDVAKQRAAPKVSPHVKPEQKQMVAQQESIREGFQKRCLPVMVLKAKKPFTFETQEGKQEMFHATVATEKEFFFVKVFNTLLKDKFIPKRIIIIARYYRHSGFLEVNSASRVLDAESDQKVNVPLNIIRKAGETPKINTLQTQPLGTIVNGLFVVQKVTEKKKNILFDLSDNTGKMEVLGVRNEDTMKCKEGDKVRLTFFTLSKNGEKLQLTSGVHSTIKVIKAKKKT			binding (GFP-IRGM (human) [4]): no binding
Flag-RIG-I (protein, UniProt O95786 1-925) MTTEQRRSLQAFQDYIRKTLDPTYILSYMAPWFREEEVQYIQAEKNNKGPMEAATLFLKFLLELQEEGWFRGFLDALDHAGYSGLYEAIESWDFKKIEKLEEYRLLLKRLQPEFKTRIIPTDIISDLSECLINQECEEILQICSTKGMMAGAEKLVECLLRSDKENWPKTLKLALEKERNKFSELWIVEKGIKDVETEDLEDKMETSDIQIFYQEDPECQNLSENSCPPSEVSDTNLYSPFKPRNYQLELALPAMKGKNTIICAPTGCGKTFVSLLICEHHLKKFPQGQKGKVVFFANQIPVYEQQKSVFSKYFERHGYRVTGISGATAENVPVEQIVENNDIIILTPQILVNNLKKGTIPSLSIFTLMIFDECHNTSKQHPYNMIMFNYLDQKLGGSSGPLPQVIGLTASVGVGDAKNTDEALDYICKLCASLDASVIATVKHNLEELEQVVYKPQKFFRKVESRISDKFKYIIAQLMRDTESLAKRICKDLENLSQIQNREFGTQKYEQWIVTVQKACMVFQMPDKDEESRICKALFLYTSHLRKYNDALIISEHARMKDALDYLKDFFSNVRAAGFDEIEQDLTQRFEEKLQELESVSRDPSNENPKLEDLCFILQEEYHLNPETITILFVKTRALVDALKNWIEGNPKLSFLKPGILTGRGKTNQNTGMTLPAQKCILDAFKASGDHNILIATSVADEGIDIAQCNLVILYEYVGNVIKMIQTRGRGRARGSKCFLLTSNAGVIEKEQINMYKEKMMNDSILRLQTWDEAVFREKILHIQTHEKFIRDSQEKPKPVPDKENKKLLCRKCKALACYTADVRVIEECHYTVLGDAFKECFVSRPHPKPKQFSSFEKRAKIFCARQNCSHDWGIHVKYKTFEIPVIKIESFVVEDIATGVQTLYSKWKDFHFEKIPFDPAEMSK			binding (GFP-IRGM (human) [4]): binds
Flag-NDP52 (protein, UniProt Q13137 1-446) MEETIKDPPTSAVLLDHCHFSQVIFNSVEKFYIPGGDVTCHYTFTQHFIPRRKDWIGIFRVGWKTTREYYTFMWVTLPIDLNNKSAKQQEVQFKAYYLPKDDEYYQFCYVDEDGVVRGASIPFQFRPENEEDILVVTTQGEVEEIEQHNKELCKENQELKDSCISLQKQNSDMQAELQKKQEELETLQSINKKLELKVKEQKDYWETELLQLKEQNQKMSSENEKMGIRVDQLQAQLSTQEKEMEKLVQGDQDKTEQLEQLKKENDHLFLSLTEQRKDQKKLEQTVEQMKQNETTAMKKQQELMDENFDLSKRLSENEIICNALQRQKERLEGENDLLKRENSRLLSYMGLDFNSLPYQVPTSDEGGARQNPGLAYGNPYSGIQESSSPSPLSIKKCPICKADDICDHTLEQQQMQPLCFNCPICDKIFPATEKQIFEDHVFCHSL			binding (GFP-IRGM (human) [4]): no binding
GFP-IRGM (protein, UniProt A1A4Y4 1-181) MEAMNVEKASADGNLPEVISNIKETLKIVSRTPVNITMAGDSGNGMSTFISALRNTGHEGKASPPTELVKATQRCASYFSSHFSNVVLWDLPGTGSATTTLENYLMEMQFNRYDFIMVASAQFSMNHVMLAKTAEDMGKKFYIVWTKLDMDLSTGALPEVQLLQIRENVLENLQKERVCEY			binding (Flag-RIG-I): binds; binding (Flag-cGAS): binds; binding (Flag-TLR3): binds
